Test system: T98G cells
Experiment: Antitumor activity in T98G cells in culture (WST-1 cell viability)
Format: cell-based, human
Procedure: Unless otherwise noted, maximal efficacies were measured at 10 μM. Data are the mean of at least three independent experiments performed in triplicate.
Cell culture. Cells were cultured in DMEM supplemented with 10% FBS, 100 U/mL penicillin, and 100 μg/mL streptomycin at 37° C. in a 5% CO2 humidified atmosphere. T98G and HepG2 cells (ATCC, Manassas, Va.) were authenticated by ATCC when purchased using human short tandem repeat analysis and maintained in culture for less than 6 months. Tumors were obtained from surgeries performed at the Swedish Medical Center (Seattle, Wash.) according to Institutional Review Board guidelines. Patient samples used in this study were diagnosed as WHO grade IV glioblastoma multiforme. Patient-derived GBM cells were established from the freshly resected tumor tissues and maintained in NeuroCult® NSA medium (Stem Cell Technologies) with B-27 serum-free supplement, 20 ng/mL epidermal growth factor and 20 ng/mL fibroblast growth factor 2 as previously described.
Cell viability. […] Maximal % killing was calculated as the % reduction in cell viability measured at all drug concentration. EC50 values were calculated and reported only when a curve was reliably extrapolated by Prism software. The solvent for all modified carbazoles was DMSO (0.1% final).

In the case of `CN[C@H]1CCc2cc(OC)c(OC)c(OC)c2-c2ccc(OC)c(=O)cc21` [colcemide, reference compound], the EC50 (WST-1, 72 hours after treatment) is reported as 113 nM and the “maximal killing (% ± SEM)” value (at 10 μM, 72 hours) is reported as 35.9%±6.4.
